Measured values taken from patent US20080306001A1, “TRANSCRIPTIONAL MODULATION OF EXTRACELLULAR MATRIX (ECM) OF DERMAL FIBROBLASTS” (priority 2007, published 2008).

Legend:
dermal fibroblasts [1] = test: Effect of interfering peptides on expression of ECM components, protein level (Western blot); format: cell-based, human
Protocol: (§1) Human dermal fibroblasts were cultured in standard conditions (DMEM, 10% FCS, penicillin+streptomycin) and used in experiments after three passages in the laboratory. Cells were grown in 24 well plates, each treatment in triplicates. Cells were plated 16 hours prior treatments started. Peptides were added to the media, and media was changed every day during 7 day experiment. CPP concentration was 10 μM.
(§2) Western blot using antibodies against fibronectin, thrombospondin, collagen I, collagen II, collagen 4, elastin, MMP1, MMP2, MMP7 and TIMP1 were performed using standard protocols. Cells were lysed in SDS loading buffer and separated on 5% SDS PAGE following transfer onto PVD membrane using semidry blotting. Antibodies were diluted 1:2000 and incubated for 2 hours followed by secondary antibody conjugated to alkaline phosphatase. Antibody binding was visualized using one step BCIP reagent (Pierce).
(§3) The cells were treated with peptides (1 μM) 24 hours for the mRNA analysis and 72 hours for protein analysis. All experiments were done in triplicates. Variation between replicates was less that 15%.

human dermal fibroblasts [2] = test: Whole genome gene expression analysis (Affymetrix GeneChip Human Gene 1.0 ST Array); format: cell-based; conditions: peptide 10 μM, 24 hour
Protocol: Human dermal fibroblasts were cultured in standard conditions (DMEM, 10% FCS, penicillin+streptomycin) and used in experiments after three passages in the laboratory. Cells were grown in 60 mm plates, each treatment in duplicates. Cells were plated 16 hours prior treatments started. Peptides (10 μM) were added to the media, and cells were collected for RNA isolation 24 hour later.
Total RNA was purified by using 4PCRmini kit (Ambion). First-strand cDNAs were synthesized with Superscript III reverse transcriptase (Invitrogen, USA) and 5 μg of total RNA using oligo d(T) priming in a final reaction volume of 50 μL and used to generate fluorescently labeled probes for whole genome gene expression analysis. Whole genome gene expression analysis was conducted using Affymetrix GeneChip™ Human Gene 1.0 ST Array.

human dermal fibroblasts [3] = test: Effect of peptides on expression of growth factors, mRNA (RT-PCR); format: cell-based; conditions: for CTGF mRNA, fold stimulation of expression compared to control / HGF mRNA, fold stimulation of expression compared to control / IGF-1 mRNA, fold stimulation of expression compared to control / VEGF mRNA, fold stimulation of expression compared to control / b-FGF mRNA, fold stimulation of expression compared to control: peptide 10 μM; for expression of CTGF (in words): protein and mRNA
Protocol: (§4) Human dermal fibroblasts were cultured in standard conditions (DMEM, 10% FCS, penicillin+streptomycin) and used in experiments after three passages in the laboratory. Cells were grown in 12 well plates, each treatment in triplicates. Cells were plated 16 hours prior treatments started. Peptides were added to the media, and media was changed every day during 7 day experiment. CPP concentration was 10 μM.
(§5) Total RNA from various human tissues was purified using RNAwiz (Ambion, USA) and subjected to subsequent DNase I treatment using the DNA-Free kit (Ambion). Total RNA from cancer cells was purified by using 4PCRmini kit (Ambion). First-strand cDNAs were synthesized with Superscript III reverse transcriptase (Invitrogen, USA) and 5 μg of total RNA using oligo d(T) priming in a final reaction volume of 50 μL
The cDNA was amplified by PCR using the 2,5U Hot-Firepol (Solis BioDyne, Estonia) and buffer Yellow (Naxo, Estonia). Reaction was performed in a 10 ul volume, using 0.5 ul cDNA as a template. Primer sets were designed to specifically amplify the nucleic acid sequence for the corresponding growth factor for this study: […]

human dermal fibroblasts [4] = test: Effect of peptides on expression of growth factors, protein (Western blot); format: cell-based; conditions: peptide 10 μM
Protocol: as §4
Western blots using antibodies against growth factors were performed using standard protocols. Cells were lysed in SDS loading buffer and separated on 5% SDS PAGE following transfer onto PVD membrane using semidry blotting. Antibodies were diluted 1:2000 and incubated for 2 hours followed by secondary antibody conjugated to alkaline phosphatase. Antibody binding was visualized using one step BCIP reagent (Pierce).

dermal fibroblasts [5] = test: Effect of interfering peptides on expression of ECM components, mRNA level (RT-PCR); format: cell-based, human; conditions: peptide 1 μM, 24 hours
Protocol: as §1, §5
The cDNA was amplified by PCR using the 2,5U Hot-Firepol (Solis BioDyne, Estonia) and buffer Yellow (Naxo, Estonia). Reaction was performed in a 10 ul volume, using 0.5 ul cDNA as a template. Following primer sets were designed for this study:
as §3

[6] = tested on: human dermal fibroblast cell lines obtained from elderly patients; test: Effect of CPP mimicking peptides on synthesis of collagen I, collagen II and elastin in aged dermal fibroblasts (Western blot); format: cell-based; conditions: peptide 10 μM
Protocol: The ability to interfere interaction of TAF4, BRG1 and N-CoR1 with the active transcriptional complex and stimulate synthesis of collagen I, collagen II and elastin was tested on 2 human dermal fibroblast cell lines obtained from elderly patients. It has been shown that: • TAF4 suppression using siRNA stimulates expression of numerous genes in embryonic fibroblasts. (Mengus G, Fadloun A, Kobi D, Thibault C, Perletti L, Michel I, Davidson I. 2005. TAF4 inactivation in embryonic fibroblasts activates TGFbeta signaling and autocrine growth. EMBO J. 2005 Aug. 3; 24(15):2753-67.) • Brg1 inhibits numerous genes during development. (Inayoshi Y, Kaneoka H, Machida Y, Terajima M, Dohda T, Miyake K, Iijima S. 2005. Repression of GR-mediated expression of the tryptophan oxygenase gene by the SWI/SNF complex during liver development. J Biochem (Tokyo). 2005 October; 138(4):457-65) • N-CoR1 plays a crucial role in the repressive activity of diverse transcription factors (J. Frasor, J. M. Danes, C. C. Funk and B. S. Katzenellenbogen. 2005. Estrogen down-regulation of the corepressor N-CoR: Mechanism and implications for estrogen derepression of N-CoR-regulated genes. PNAS. vol. 102 no. 37, 13153-13157.) • SMAD7 functions as a component of negative feedback regulation that controls timining and extent of TGFbeta signaling (Zhu X, Topouzis S, Liang L F, Stotish RL. Myostatin signaling through Smad2, Smad3 and Smad4 is regulated by the inhibitory Smad7 by a negative feedback mechanism. Cytokine. 2004 Jun. 21; 26(6):262-72.) • TAF10 is one of the TATA box-binding protein-associated factors (TAFs), which constitute the TFIID complex.
as §1, §2

[7] = fibroblast 1 (first block of Table 1)
[8] = second block of Table 1 (also fibroblast 1)

Row | Sequence | Number of genes with altered expression: expression stimulated 2-5 fold (human dermal fibroblasts [2]) | Number of genes with altered expression: expression stimulated more than 5 fold (human dermal fibroblasts [2]) | Number of genes with altered expression: expression suppressed 2-5 fold (human dermal fibroblasts [2]) | Number of genes with altered expression: expression suppressed more than 5 fold (human dermal fibroblasts [2]) | CTGF mRNA, fold stimulation of expression compared to control (human dermal fibroblasts [3]) [fold] | HGF mRNA, fold stimulation of expression compared to control (human dermal fibroblasts [3]) [fold] | IGF-1 mRNA, fold stimulation of expression compared to control (human dermal fibroblasts [3]) [fold] | VEGF mRNA, fold stimulation of expression compared to control (human dermal fibroblasts [3]) [fold] | b-FGF mRNA, fold stimulation of expression compared to control (human dermal fibroblasts [3]) [fold] | expression of CTGF (in words) (human dermal fibroblasts [3]) | CTGF protein, fold stimulation of expression compared to control (human dermal fibroblasts [4]) [fold] | HGF protein, fold stimulation of expression compared to control (human dermal fibroblasts [4]) [fold] | IGF-1 protein, fold stimulation of expression compared to control (human dermal fibroblasts [4]) [fold] | VEGF protein, fold stimulation of expression compared to control (human dermal fibroblasts [4]) [fold] | b-FGF protein, fold stimulation of expression compared to control (human dermal fibroblasts [4]) [fold] | further results
1 | RPKKRKVRRRNRAGFEASDPRIIRLISLAAQKFISDIANDALQ [TAF10.1, CPP-mimicking peptide] | 786 | 451 | 543 | 298 | 18 | 2 | 2 | 2 | 8 | stimulate expression of CTGF significantly | 13 | 1 | 1 | 1 | 2 | expression of components of ECM (in words) (dermal fibroblasts [1]; dermal fibroblasts in vitro, protein and mRNA): stimulate expression of components of ECM; CollagenI protein, fold stimulation (dermal fibroblasts [1]; peptide 1 μM, 72 hours): 3.9 fold; Elastin protein, fold stimulation (dermal fibroblasts [1]; peptide 1 μM, 72 hours): 2.4 fold; Fibronectin protein, fold stimulation (dermal fibroblasts [1]; peptide 1 μM, 72 hours): 2.6 fold; MMP1 protein, fold stimulation (dermal fibroblasts [1]; peptide 1 μM, 72 hours): 1.3 fold; MMP2 protein, fold stimulation (dermal fibroblasts [1]; peptide 1 μM, 72 hours): 1.5 fold; MMP7 protein, fold stimulation (dermal fibroblasts [1]; peptide 1 μM, 72 hours): 1.7 fold; TIMP protein, fold stimulation (dermal fibroblasts [1]; peptide 1 μM, 72 hours): 2.7 fold; collagen IV protein, fold stimulation (dermal fibroblasts [1]; peptide 1 μM, 72 hours): 2.9 fold; thrombospondin protein, fold stimulation (dermal fibroblasts [1]; peptide 1 μM, 72 hours): 2.9 fold; MMP1 mRNA, fold stimulation (dermal fibroblasts [5]): 3.9 fold; MMP7 mRNA, fold stimulation (dermal fibroblasts [5]): 1.9 fold; MMp2 mRNA, fold stimulation (dermal fibroblasts [5]): 7.9 fold; TIMP mRNA, fold stimulation (dermal fibroblasts [5]): 4.8 fold; collagen IV mRNA, fold stimulation (dermal fibroblasts [5]): 9.0 fold; collagenI mRNA, fold stimulation (dermal fibroblasts [5]): 7.9 fold; elastin mRNA, fold stimulation (dermal fibroblasts [5]): 4.7 fold; fibronectin mRNA, fold stimulation (dermal fibroblasts [5]): 9.8 fold; thrombospondin mRNA, fold stimulation (dermal fibroblasts [5]): 12.7 fold
2 | RPKKRKVRRRSRWTEEEMEVAKKGLVEHGRNWAAIAKMVG [N-CoR1.1, CPP-mimicking peptide] | 1192 | 251 | 1286 | 76 | 12 | 5 | 2 | 2 | 23 | stimulate expression of CTGF significantly | 9 | 2 | 1.2 | 1 | 3 | collagen I, fold increase after 7 days [6, 7]: 1.5 fold; collagen II, fold increase after 7 days [6, 7]: 3 fold; elastin, fold increase after 7 days [6, 7]: 7 fold; collagen I, fold increase after 7 days [6, 8]: 5 fold; collagen II, fold increase after 7 days [6, 8]: 3 fold; elastin, fold increase after 7 days [6, 8]: 3 fold
